Source: PMC4519308
Results are given in words; binding and its absence hold for the method and conditions named. Binding seen in cells or lysates may run through a third protein. Some results given as binding are weak or reduced against the parent protein; the word gives no strength. For part of these data: Tags and fused reporters may be left off the sequences shown. Values belong to the molecule of their own block, whether it stands above or below them.

What was measured:
[1] = target: Mrpl44, FLAG-tagged (Mrpl44FLAG) and GFP-tagged (Mrpl44GFP) copies co-transfected (mouse) (UniProt Q9CY73); assay: co-IP; HEK293T co-transfected with the two tagged constructs; lysates immunoprecipitated with M2 αFLAG agarose beads, blotted with αGFP; KALB lysis buffer (20mM Tris-HCl pH 8.0, 100mM KCl, 0.2 mM EDTA)
FLAGBak (mouse) = target: T1, FLAGBak (mouse) (UniProt O08734); assay: as above
T1 sequence: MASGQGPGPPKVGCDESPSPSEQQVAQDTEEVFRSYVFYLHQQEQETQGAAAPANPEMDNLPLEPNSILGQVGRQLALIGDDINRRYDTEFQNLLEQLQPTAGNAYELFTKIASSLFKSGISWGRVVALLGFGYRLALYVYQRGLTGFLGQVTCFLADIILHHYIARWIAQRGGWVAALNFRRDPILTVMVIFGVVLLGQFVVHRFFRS

[2] = target: Mrpl44 (endogenous) (mouse (endogenous in NIH3T3)) (UniProt Q9CY73); assay: co-IP; NIH3T3 whole cell extracts immunoprecipitated with rabbit αMrpl44 antibody (control: αrabbit Ig) on Protein G sepharose beads, blotted for Mrpl44, Mrpl12 and Mrps15; endogenous proteins

- binding [1]: binds
- binding (FLAGBak (mouse)): no binding
Molecule: Mrpl44, FLAG-tagged (Mrpl44FLAG) and GFP-tagged (Mrpl44GFP) copies co-transfected (from UniProt Q9CY73 31-333)

- binding [2]: binds
B1: Mrps15 (protein, UniProt Q9DC71 58-258)
chain: PVQPKQDDEPPSSAFIKEYKDIIPNIEKVDDVVKRILSLEMASRKEKLKIKQEQLMNKIVENPEDSRTLEAQIIALTVRIRNYEEHMQKHRKDKAHKRHLLMSIDRRKKLLKILRQTNYDVFEKTCKELGVEYTLPPLHFQKVHRRFLAKKALCIRVYQEVQKLKKQKRALKAAAAAAKKEKNEGVPENPSNAVPEKTQVN
